The target of the test is T1, Human TSLPR fragment 67-693 (human) (UniProt Q9HC73).
T1 sequence (receptor fragment, looked up): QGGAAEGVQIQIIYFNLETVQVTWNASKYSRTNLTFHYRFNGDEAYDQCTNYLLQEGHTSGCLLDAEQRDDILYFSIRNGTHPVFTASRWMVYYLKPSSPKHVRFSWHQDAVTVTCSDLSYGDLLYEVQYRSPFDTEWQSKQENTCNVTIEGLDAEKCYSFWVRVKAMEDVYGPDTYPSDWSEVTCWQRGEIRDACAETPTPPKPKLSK
Kind of test: ELISA of antibody 1D6.C9 on human TSLPR fragments (OD650); hFc bars as control for the fragment.

Results are given in words; binding and its absence hold for the method and conditions named. Some binding calls cover weakened binding; strength is not graded here.

B1: mouse anti-hTSLPR monoclonal antibody clone 1D6.C9 (antibody, V domains shown)
VH: QIQLGQSGPELKKPGETVKISCKASGYTFTTYGMSWVKQAPGKGLQWMGWINTYSGVPRYADDFKGRFAFSLETSASTAYLQIYNLKNEDTATYFCTREGFITTVVGAAGRFVYWGQGTLVTVSA
VL: DIVMTQSHKFMSTSVGDRVSITCKASQDVGTAVAWYQQKPGQSPKLLIYWASTRHTGVPDRFTGSGSGTDFTLTLNNVQSEDLADYFCQQYSTYPTFGSGTKLELKR
notes: also called mAb 1D6.C9; mouse anti-hTSLPR antibody
Consider B1, for which the binding entry is reported as “binds”.

(Values after US20120027756A1 (IRM, published 2012).)
